Tested on: CD8^+ T-lymphocytes
Assay: LC-MS/MS quantification of intracellular 2HG
Assay type: cell-based, mouse

| SMILES | intracellular concentration of 2HG (activated wild type CD8+ T-lymphocytes, 21% oxygen, printed ±30 μM) [µM] | mean intracellular concentration of 2HG (hypoxia (1% oxygen), printed ±0.25 mM) [mM] | share of the total 2HG pool (hypoxia) [%] | share of the total 2HG pool (normoxic activated CD8+ primary T-lymphocytes) [%] |
| --- | --- | --- | --- | --- |
| O=C(O)CCC(O)C(=O)O (stereo not shown) [2HG, 2-hydroxyglutarate] | 190 | 1.71 | – | – |
| O=C(O)CC[C@H](O)C(=O)O [S-2HG, S-2-hydroxyglutarate] | – | – | 90 | ~60 |

— patent US20190316085A1, “Methods Of T-Lymphocyte Expansion” (Cambridge Enterprise Limited, priority 2015, published 2019)
